These are yes or no findings as the source states them, for the method shown. Binding seen in cells or lysates may run through a third protein. Binding can be weak; no strength is given.

Chains of the proteins cited; added tags and fusions are not shown. Lines headed by an entry give the natural chain unless they say otherwise; changes in a name come on top.
UniProt O15371: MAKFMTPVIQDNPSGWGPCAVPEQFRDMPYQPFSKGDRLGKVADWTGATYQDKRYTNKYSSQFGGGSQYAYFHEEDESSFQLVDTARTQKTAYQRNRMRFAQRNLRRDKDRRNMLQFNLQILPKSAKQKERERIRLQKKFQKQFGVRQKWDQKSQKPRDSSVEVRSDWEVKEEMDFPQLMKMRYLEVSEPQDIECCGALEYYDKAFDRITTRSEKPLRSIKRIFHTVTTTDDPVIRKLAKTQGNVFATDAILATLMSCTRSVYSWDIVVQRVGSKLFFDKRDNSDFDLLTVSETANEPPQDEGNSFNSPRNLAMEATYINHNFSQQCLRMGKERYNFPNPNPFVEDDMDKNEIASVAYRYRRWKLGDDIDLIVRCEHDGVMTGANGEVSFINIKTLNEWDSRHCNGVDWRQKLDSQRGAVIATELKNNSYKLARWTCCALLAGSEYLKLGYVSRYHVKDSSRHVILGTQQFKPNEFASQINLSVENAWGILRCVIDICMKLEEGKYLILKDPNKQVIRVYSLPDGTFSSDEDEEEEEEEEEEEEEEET
UniProt Q04637: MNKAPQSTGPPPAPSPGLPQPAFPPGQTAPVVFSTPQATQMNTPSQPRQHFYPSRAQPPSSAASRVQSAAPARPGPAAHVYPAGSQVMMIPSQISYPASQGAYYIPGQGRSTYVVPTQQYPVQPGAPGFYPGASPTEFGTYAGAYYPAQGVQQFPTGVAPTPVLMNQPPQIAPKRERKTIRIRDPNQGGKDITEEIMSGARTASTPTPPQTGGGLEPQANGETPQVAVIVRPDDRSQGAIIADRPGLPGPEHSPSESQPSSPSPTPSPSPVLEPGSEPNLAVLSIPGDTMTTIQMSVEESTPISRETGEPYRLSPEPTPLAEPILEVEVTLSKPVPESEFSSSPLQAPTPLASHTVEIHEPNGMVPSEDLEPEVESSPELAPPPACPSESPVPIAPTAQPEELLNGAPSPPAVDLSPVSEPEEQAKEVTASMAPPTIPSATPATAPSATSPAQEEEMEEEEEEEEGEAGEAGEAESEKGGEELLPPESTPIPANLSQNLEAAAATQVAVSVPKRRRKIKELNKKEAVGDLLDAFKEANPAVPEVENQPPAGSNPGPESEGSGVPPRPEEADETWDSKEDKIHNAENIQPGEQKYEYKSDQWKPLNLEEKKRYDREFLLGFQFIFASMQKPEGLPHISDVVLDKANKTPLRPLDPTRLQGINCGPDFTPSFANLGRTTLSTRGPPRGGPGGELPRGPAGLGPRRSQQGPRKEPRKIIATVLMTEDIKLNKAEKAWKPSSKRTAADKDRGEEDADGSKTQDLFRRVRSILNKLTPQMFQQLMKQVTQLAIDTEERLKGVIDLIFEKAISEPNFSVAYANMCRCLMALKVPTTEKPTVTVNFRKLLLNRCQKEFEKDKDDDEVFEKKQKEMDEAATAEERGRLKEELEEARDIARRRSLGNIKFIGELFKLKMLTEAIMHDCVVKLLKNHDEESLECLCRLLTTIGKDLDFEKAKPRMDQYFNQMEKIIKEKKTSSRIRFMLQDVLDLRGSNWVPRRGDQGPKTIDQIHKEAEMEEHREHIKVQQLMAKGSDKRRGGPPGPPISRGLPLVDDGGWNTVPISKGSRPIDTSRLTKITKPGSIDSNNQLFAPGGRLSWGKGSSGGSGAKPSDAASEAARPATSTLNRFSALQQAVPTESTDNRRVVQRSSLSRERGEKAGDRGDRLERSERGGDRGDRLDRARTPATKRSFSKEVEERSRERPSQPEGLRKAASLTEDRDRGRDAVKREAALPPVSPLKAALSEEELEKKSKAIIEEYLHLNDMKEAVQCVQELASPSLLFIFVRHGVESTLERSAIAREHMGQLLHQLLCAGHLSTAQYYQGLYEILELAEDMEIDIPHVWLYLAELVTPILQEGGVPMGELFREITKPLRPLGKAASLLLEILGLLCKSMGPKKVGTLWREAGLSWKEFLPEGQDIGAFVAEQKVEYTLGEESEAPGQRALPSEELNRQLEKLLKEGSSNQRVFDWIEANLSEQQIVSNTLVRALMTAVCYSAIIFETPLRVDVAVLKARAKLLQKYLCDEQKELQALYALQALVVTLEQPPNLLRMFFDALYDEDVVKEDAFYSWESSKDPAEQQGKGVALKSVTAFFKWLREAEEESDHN
UniProt P55884: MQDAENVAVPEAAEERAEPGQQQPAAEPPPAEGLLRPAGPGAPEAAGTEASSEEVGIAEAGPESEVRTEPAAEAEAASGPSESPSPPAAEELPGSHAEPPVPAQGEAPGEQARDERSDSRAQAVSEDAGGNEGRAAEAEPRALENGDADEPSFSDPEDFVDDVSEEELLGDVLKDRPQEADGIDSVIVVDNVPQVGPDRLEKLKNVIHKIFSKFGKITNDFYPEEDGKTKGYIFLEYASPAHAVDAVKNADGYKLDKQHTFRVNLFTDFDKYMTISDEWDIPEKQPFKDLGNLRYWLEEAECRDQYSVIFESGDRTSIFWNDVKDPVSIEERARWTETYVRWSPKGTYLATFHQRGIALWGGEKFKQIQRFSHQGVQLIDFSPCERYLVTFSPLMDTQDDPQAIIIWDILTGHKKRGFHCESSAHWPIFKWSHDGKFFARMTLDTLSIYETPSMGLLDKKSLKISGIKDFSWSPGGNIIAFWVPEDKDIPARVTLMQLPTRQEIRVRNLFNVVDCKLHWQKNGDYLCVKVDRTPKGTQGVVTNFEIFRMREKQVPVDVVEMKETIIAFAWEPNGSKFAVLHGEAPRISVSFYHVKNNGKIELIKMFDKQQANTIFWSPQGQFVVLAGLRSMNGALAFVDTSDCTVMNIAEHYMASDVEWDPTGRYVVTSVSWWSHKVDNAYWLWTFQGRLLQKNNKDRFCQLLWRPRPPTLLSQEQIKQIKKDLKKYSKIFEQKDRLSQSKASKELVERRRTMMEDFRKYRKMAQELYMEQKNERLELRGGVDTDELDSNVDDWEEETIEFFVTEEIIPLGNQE
UniProt Q9Y262: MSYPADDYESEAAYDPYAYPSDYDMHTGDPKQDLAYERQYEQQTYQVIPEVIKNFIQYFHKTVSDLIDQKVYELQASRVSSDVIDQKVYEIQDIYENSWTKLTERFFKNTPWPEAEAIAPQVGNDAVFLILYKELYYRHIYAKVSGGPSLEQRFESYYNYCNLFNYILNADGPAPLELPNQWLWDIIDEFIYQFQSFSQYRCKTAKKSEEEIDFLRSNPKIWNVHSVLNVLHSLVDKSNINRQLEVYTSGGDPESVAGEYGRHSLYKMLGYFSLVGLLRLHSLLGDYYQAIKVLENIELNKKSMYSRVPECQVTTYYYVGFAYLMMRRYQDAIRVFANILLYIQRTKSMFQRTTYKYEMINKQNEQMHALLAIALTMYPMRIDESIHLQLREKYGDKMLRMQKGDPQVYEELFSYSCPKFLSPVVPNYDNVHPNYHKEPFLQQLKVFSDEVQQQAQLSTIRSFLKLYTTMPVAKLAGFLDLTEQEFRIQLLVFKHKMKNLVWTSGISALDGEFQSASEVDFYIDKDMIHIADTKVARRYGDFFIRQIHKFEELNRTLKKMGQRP

This is an account of results in PMC12136000.

This assay addresses phospho-mimetic eIF3D^DD-FLAG (UniProt O15371). Briefly: co-IP; HeLa lysate (50 mM Tris pH7.5, 150 mM NaCl, 1% Triton-X, Benzonase) on anti-flag-beads for 2 h at 4 °C, three washes, western blot; cells treated for 2 h with DMSO or with 3 µM of the CK2 inhibitor CX-5011 before lysis.
eIF4G1 (from UniProt Q04637 1-1599): the binding entry is listed as “binds”.

As for eIF3b (from UniProt P55884 1-814), the binding entry is on record as “binds”. The value for eIF3l (from UniProt Q9Y262 1-564) was “binds”.
